From the supplement of paper PMC10849652
The list shows a part of the results.

Protein sequences, listed by entry. Tags and fused reporters are not part of them. Lines headed by an entry give the natural chain unless they say otherwise; changes in a name come on top.
UniProt Q13576: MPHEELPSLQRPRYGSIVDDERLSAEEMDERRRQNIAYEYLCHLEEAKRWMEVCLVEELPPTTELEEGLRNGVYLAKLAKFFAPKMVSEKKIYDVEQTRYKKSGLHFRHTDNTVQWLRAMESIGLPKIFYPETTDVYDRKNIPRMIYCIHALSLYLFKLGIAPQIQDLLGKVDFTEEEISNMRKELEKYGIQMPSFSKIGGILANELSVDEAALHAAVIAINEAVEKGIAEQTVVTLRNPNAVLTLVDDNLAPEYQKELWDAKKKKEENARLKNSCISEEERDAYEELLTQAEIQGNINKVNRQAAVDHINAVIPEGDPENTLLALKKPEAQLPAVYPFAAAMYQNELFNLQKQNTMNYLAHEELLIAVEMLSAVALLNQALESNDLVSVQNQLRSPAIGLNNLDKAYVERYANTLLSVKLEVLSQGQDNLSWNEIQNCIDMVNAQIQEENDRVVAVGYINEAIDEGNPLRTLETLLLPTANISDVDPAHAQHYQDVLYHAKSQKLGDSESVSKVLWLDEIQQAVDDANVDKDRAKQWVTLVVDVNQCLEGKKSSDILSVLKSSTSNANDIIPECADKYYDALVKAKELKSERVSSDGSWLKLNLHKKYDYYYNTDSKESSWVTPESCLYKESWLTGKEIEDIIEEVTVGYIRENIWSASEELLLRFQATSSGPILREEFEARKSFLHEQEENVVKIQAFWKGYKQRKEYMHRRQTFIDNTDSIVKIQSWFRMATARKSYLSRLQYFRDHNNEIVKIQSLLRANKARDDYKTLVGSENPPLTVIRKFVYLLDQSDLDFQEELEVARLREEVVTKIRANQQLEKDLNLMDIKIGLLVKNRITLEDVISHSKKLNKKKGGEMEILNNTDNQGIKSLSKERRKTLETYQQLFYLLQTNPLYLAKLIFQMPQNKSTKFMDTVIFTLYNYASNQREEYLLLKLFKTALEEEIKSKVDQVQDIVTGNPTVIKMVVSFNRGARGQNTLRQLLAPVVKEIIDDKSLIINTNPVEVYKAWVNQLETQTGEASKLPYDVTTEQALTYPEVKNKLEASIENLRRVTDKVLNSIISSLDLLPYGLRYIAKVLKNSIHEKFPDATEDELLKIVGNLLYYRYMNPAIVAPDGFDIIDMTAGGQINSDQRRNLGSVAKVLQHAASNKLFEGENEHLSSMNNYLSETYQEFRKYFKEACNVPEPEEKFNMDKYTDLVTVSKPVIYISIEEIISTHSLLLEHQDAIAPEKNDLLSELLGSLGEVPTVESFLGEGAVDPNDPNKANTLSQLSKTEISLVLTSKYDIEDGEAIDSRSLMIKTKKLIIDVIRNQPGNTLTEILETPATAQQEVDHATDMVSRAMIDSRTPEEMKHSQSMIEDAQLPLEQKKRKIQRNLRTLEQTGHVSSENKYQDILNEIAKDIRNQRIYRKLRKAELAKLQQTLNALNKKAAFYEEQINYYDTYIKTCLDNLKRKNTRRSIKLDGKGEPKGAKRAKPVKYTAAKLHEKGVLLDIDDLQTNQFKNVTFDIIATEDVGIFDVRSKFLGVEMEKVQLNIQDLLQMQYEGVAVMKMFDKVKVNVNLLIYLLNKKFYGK
UniProt Q70UQ0: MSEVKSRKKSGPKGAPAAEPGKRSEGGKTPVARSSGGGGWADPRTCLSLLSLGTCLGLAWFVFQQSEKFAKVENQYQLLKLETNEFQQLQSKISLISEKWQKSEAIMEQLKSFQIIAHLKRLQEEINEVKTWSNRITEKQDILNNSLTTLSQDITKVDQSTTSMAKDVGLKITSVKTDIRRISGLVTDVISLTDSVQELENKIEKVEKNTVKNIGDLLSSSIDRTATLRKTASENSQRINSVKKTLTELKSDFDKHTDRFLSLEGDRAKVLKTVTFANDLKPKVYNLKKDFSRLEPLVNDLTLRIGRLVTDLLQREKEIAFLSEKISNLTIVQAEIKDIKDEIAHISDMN
UniProt Q969R8: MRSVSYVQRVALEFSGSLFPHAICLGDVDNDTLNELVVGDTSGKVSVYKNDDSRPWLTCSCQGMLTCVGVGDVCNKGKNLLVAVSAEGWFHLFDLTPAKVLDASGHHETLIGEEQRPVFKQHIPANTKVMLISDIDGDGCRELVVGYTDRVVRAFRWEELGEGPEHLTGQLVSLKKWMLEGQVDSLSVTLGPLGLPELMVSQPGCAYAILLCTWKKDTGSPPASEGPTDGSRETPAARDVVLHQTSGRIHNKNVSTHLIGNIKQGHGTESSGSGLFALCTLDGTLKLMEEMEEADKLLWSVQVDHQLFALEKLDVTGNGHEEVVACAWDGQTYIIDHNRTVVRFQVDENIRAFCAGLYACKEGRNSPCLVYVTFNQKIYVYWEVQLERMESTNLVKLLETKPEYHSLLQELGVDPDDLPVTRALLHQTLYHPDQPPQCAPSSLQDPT
UniProt Q13422: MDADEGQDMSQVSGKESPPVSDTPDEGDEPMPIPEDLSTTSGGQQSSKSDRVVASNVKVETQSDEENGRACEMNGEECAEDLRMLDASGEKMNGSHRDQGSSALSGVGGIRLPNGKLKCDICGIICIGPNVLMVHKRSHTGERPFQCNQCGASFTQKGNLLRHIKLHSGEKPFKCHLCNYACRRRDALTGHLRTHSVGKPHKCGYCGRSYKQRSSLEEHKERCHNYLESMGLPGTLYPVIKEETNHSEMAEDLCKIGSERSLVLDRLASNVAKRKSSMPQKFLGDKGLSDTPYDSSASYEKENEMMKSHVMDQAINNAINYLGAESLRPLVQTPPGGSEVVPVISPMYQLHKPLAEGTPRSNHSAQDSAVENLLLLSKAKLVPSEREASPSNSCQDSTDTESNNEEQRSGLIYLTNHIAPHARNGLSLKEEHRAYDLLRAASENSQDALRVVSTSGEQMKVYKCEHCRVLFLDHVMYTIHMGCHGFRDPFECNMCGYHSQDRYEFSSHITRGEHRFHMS
UniProt O95373, whole entry, looked up: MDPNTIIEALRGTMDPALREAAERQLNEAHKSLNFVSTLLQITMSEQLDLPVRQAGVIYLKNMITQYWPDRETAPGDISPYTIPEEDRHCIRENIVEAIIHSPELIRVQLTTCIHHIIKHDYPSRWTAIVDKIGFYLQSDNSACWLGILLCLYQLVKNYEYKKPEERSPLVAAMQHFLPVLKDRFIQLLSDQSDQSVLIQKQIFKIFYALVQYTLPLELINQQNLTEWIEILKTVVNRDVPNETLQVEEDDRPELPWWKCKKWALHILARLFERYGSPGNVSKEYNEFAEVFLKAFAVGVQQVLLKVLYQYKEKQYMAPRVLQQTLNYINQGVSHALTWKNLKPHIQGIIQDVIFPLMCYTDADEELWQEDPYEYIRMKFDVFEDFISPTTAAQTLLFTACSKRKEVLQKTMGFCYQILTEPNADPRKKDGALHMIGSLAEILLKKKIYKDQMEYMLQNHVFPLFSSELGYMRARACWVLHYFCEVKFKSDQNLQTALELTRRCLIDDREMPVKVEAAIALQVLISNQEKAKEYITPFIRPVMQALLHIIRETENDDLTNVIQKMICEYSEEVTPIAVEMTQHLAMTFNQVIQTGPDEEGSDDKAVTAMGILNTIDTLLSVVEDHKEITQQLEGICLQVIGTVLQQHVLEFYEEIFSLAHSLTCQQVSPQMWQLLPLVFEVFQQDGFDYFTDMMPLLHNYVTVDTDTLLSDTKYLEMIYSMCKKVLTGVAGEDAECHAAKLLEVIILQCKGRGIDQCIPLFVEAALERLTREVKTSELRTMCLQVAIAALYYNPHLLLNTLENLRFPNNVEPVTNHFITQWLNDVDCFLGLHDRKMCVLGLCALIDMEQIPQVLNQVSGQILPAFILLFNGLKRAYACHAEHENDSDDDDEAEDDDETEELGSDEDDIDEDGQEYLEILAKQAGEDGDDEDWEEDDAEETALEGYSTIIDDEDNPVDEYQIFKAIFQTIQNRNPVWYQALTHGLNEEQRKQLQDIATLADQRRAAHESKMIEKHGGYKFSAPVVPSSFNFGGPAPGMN
UniProt P49441: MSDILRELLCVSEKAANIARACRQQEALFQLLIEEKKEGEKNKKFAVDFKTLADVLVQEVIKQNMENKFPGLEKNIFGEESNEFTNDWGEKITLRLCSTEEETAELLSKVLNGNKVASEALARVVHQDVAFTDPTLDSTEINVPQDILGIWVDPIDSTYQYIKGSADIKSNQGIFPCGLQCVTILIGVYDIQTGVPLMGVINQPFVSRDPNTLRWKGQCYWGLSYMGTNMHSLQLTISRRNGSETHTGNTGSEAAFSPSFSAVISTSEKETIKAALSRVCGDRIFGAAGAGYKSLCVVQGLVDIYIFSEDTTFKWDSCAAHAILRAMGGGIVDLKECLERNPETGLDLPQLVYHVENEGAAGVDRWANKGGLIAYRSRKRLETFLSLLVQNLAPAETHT
UniProt Q96LB3: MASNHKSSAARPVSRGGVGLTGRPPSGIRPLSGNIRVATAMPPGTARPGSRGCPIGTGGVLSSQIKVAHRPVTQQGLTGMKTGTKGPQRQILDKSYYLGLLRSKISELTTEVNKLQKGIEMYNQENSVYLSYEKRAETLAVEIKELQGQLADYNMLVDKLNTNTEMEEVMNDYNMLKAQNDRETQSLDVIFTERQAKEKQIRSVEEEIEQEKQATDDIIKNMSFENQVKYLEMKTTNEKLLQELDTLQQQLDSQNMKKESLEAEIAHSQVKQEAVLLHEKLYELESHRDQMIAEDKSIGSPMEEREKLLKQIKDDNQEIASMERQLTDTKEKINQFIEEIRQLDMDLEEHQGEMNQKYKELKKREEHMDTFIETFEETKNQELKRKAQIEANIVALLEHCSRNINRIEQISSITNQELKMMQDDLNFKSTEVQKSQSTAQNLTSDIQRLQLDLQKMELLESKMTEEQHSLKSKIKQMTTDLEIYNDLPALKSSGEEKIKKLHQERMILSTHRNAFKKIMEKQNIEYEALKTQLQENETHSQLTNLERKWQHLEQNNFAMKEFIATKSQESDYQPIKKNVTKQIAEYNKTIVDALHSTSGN
UniProt Q9H0C8: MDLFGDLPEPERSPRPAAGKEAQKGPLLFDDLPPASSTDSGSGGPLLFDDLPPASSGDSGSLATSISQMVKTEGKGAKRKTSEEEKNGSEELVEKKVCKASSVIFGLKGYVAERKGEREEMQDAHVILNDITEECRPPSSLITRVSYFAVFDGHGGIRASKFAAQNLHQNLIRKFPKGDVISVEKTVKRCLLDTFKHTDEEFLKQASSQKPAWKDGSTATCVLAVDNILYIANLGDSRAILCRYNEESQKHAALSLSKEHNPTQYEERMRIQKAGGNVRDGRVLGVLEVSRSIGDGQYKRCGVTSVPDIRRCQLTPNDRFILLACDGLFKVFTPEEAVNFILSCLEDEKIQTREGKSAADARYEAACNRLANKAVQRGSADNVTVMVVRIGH
UniProt P22692: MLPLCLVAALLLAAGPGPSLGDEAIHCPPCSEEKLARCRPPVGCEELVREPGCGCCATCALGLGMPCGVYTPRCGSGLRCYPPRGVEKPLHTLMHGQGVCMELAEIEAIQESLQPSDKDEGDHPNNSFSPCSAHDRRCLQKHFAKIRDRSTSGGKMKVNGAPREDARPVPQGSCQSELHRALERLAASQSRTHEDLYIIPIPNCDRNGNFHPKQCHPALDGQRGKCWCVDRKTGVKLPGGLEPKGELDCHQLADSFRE
UniProt Q96LU5: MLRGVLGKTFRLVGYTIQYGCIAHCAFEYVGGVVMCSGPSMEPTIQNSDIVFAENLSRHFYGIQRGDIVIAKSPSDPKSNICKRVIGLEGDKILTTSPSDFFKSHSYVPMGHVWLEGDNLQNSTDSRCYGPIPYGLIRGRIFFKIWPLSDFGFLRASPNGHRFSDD
UniProt Q14653: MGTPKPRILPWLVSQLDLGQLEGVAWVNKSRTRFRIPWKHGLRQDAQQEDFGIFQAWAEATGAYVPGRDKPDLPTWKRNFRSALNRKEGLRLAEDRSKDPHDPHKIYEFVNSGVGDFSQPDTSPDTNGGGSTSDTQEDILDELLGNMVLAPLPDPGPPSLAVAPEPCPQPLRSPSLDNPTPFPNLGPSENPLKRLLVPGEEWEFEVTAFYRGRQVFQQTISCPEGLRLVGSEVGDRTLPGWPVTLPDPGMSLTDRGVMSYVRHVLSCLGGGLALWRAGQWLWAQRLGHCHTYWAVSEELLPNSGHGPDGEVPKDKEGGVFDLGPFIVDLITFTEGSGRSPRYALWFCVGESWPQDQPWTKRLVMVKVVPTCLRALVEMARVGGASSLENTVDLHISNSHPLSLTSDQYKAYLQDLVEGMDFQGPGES
UniProt P14316: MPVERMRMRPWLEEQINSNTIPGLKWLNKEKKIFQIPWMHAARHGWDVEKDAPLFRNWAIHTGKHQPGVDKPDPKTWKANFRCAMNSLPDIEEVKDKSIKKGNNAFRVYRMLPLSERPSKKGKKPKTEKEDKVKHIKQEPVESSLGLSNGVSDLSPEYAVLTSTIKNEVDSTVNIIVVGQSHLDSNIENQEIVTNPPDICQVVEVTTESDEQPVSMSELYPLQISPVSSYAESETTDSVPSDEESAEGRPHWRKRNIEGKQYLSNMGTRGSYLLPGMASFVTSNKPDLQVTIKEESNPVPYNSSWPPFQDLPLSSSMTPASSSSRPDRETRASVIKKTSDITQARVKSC

Each target was assayed with Cc1sc2c(c1C)C(c1ccc(Cl)cc1)=N[C@@H](CC(=O)OC(C)(C)C)c1nnc(C)n1-2 (assay: log2 fold change, soluble protein after heating vs DMSO (PISA); higher = thermal stabilisation; K562 cells, 10 uM, 30 min; active = over 0.2 and 3.5 SD of the protein, either way, in both replicates (recomputed)).
Procedure, shortened: (§1)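 K562 cells at 2×10^6 cells/mL were given 10 μM compound for 30 min. Aliquots then went through 3 min of heating across 48°C-58°C, were pooled, and were extracted in PBS with 0.5% NP-40 at 4°C, and the supernatant after 21,000xg for 90 min was quantified by TMTpro 16plex LC-MS/MS with channel sums equalised. Thermal stability relative to control samples, from duplicates, is given as log2 fold change.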
IQGAP2 (UniProt Q13576) was tested, and the log2 fold change was inactive: 0.024. ITPK1 (UniProt Q13572) was tested, and the log2 fold change was inactive: 0.034. With IL23R (UniProt Q5VWK5) the log2 fold change was inactive: 0.093. For IMP3 (UniProt Q9NV31), the log2 fold change was inactive: 0.029. For IKBIP (UniProt Q70UQ0), the log2 fold change was inactive: 0.07. In the case of ISY1 isoform 1 (UniProt Q9ULR0), the log2 fold change is reported as inactive: 0.037. For ISG15 (UniProt P05161), the log2 fold change was inactive: -0.083. In the case of ITFG2 (UniProt Q969R8), the log2 fold change is reported as inactive: 0.076. IKBKG isoform 2 (UniProt Q9Y6K9) was tested, and the log2 fold change was inactive: -0.005. With ILF2 (UniProt Q12905) the log2 fold change was inactive: 0.14. IKZF1 isoform 2 (UniProt Q13422) was tested, and the log2 fold change was inactive: -0.026. With IPO7 (UniProt O95373) the log2 fold change was inactive: -0.025. For IST1 isoform 5 (UniProt P53990), the log2 fold change was inactive: -0.015. With IMPA2 (UniProt O14732) the log2 fold change was inactive: -0.212. For IDH1 (UniProt O75874), the log2 fold change was inactive: -0.008. With INPP1 (UniProt P49441) the log2 fold change was inactive: -0.002. For IKBKB (UniProt O14920), the log2 fold change was inactive: 0.108. For IKZF1 (UniProt Q13422), the log2 fold change was inactive: -0.009. IFT74 (UniProt Q96LB3) was tested, and the log2 fold change was inactive: 0.003. With IRGQ (UniProt Q8WZA9) the log2 fold change was inactive: -0.016. ILKAP (UniProt Q9H0C8) was tested, and the log2 fold change was inactive: -0.045. For IPO4 isoform 2 (UniProt Q8TEX9), the log2 fold change was inactive: 0.056. For IMMP2L (UniProt Q96T52), the log2 fold change was inactive: -0.029. For IGFBP4 (UniProt P22692), the log2 fold change was inactive: -0.103. With IMMP1L (UniProt Q96LU5) the log2 fold change was inactive: -0.021. In the case of IDH3G (UniProt P51553), the log2 fold change is reported as inactive: 0.001. With IPO9 (UniProt Q96P70) the log2 fold change was inactive: -0.01. For IREB2 (UniProt P48200), the log2 fold change was inactive: 0.004. In the case of IFI35 isoform 2 (UniProt P80217), the log2 fold change is reported as inactive: -0.006. With IRF3 (UniProt Q14653) the log2 fold change was inactive: -0.007. IKBIP isoform 4 (UniProt Q70UQ0) was tested, and the log2 fold change was inactive: 0.032. In the case of IRF2 (UniProt P14316), the log2 fold change is reported as inactive: 0.003.

These targets were tested with c1ccc([C@@H]2C[C@H]2NC2CCNCC2)cc1 in the same assay as above.
Procedure, shortened: as §1
For IQGAP2 (UniProt Q13576), the log2 fold change was inactive: 0.005. For ITPK1 (UniProt Q13572), the log2 fold change was inactive: 0. With IL23R (UniProt Q5VWK5) the log2 fold change was inactive: 0.139. IMP3 (UniProt Q9NV31) was tested, and the log2 fold change was inactive: -0.07. In the case of IKBIP (UniProt Q70UQ0), the log2 fold change is reported as inactive: 0.005. ISY1 isoform 1 (UniProt Q9ULR0) was tested, and the log2 fold change was inactive: 0.03. With ISG15 (UniProt P05161) the log2 fold change was inactive: 0.001. In the case of ITFG2 (UniProt Q969R8), the log2 fold change is reported as inactive: 0.045. IKBKG isoform 2 (UniProt Q9Y6K9) was tested, and the log2 fold change was inactive: 0.022. In the case of ILF2 (UniProt Q12905), the log2 fold change is reported as inactive: 0.034. For IKZF1 isoform 2 (UniProt Q13422), the log2 fold change was inactive: 0.061. With IPO7 (UniProt O95373) the log2 fold change was inactive: 0.003. In the case of IST1 isoform 5 (UniProt P53990), the log2 fold change is reported as inactive: -0.034. For IMPA2 (UniProt O14732), the log2 fold change was inactive: -0.071. For IDH1 (UniProt O75874), the log2 fold change was inactive: 0.006. For INPP1 (UniProt P49441), the log2 fold change was inactive: 0.01. For IKBKB (UniProt O14920), the log2 fold change was inactive: -0.081. In the case of IKZF1 (UniProt Q13422), the log2 fold change is reported as inactive: 0.014. With IFT74 (UniProt Q96LB3) the log2 fold change was inactive: -0.069. For IRGQ (UniProt Q8WZA9), the log2 fold change was inactive: -0.047. For ILKAP (UniProt Q9H0C8), the log2 fold change was inactive: -0.046. In the case of IPO4 isoform 2 (UniProt Q8TEX9), the log2 fold change is reported as inactive: 0.009. In the case of IMMP2L (UniProt Q96T52), the log2 fold change is reported as inactive: -0.002. With IGFBP4 (UniProt P22692) the log2 fold change was inactive: 0.148. In the case of IMMP1L (UniProt Q96LU5), the log2 fold change is reported as inactive: 0.024. With IDH3G (UniProt P51553) the log2 fold change was inactive: 0.015. For IPO9 (UniProt Q96P70), the log2 fold change was inactive: 0.079. In the case of IREB2 (UniProt P48200), the log2 fold change is reported as inactive: -0.034. In the case of IFI35 isoform 2 (UniProt P80217), the log2 fold change is reported as inactive: -0.018. In the case of IRF3 (UniProt Q14653), the log2 fold change is reported as inactive: -0.01. IKBIP isoform 4 (UniProt Q70UQ0) was tested, and the log2 fold change was inactive: 0.018. IRF2 (UniProt P14316) was tested, and the log2 fold change was inactive: 0.005.
